Test results reported in patent publication US20070009484A1, “Compositions and methods involving MDA-7 for the treatment of cancer” (Board of Regents, The University of Texas System, priority 2005, published 2007).
No constants are given. Whether binding was seen depends on the method and setting. Binding seen in cells or lysates may run through a third protein. Some binding calls cover weakened binding; strength is not graded here.

By UniProt entry, the sequences of proteins in these tests, tags left out. Residues count along the entry.
UniProt P12830, residues 155-882: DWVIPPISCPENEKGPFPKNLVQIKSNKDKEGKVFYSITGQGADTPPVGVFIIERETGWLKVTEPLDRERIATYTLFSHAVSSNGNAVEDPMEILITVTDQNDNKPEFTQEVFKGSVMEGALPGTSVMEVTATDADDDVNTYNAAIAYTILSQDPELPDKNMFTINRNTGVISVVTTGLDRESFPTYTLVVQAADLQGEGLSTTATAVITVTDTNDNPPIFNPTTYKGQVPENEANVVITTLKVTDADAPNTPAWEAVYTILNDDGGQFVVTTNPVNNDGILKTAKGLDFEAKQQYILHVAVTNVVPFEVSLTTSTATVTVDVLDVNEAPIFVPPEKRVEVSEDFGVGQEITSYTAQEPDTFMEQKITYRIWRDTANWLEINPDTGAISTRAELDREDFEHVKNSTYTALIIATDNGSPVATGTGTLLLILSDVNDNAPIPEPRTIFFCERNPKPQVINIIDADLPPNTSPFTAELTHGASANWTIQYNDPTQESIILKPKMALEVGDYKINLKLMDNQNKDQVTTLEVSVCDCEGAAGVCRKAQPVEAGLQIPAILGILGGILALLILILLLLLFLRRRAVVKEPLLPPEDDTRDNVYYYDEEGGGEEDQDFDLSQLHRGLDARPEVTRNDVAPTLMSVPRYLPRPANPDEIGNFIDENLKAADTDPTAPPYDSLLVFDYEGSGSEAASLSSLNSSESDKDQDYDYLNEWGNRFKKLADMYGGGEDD
UniProt P35222, residues 2-781: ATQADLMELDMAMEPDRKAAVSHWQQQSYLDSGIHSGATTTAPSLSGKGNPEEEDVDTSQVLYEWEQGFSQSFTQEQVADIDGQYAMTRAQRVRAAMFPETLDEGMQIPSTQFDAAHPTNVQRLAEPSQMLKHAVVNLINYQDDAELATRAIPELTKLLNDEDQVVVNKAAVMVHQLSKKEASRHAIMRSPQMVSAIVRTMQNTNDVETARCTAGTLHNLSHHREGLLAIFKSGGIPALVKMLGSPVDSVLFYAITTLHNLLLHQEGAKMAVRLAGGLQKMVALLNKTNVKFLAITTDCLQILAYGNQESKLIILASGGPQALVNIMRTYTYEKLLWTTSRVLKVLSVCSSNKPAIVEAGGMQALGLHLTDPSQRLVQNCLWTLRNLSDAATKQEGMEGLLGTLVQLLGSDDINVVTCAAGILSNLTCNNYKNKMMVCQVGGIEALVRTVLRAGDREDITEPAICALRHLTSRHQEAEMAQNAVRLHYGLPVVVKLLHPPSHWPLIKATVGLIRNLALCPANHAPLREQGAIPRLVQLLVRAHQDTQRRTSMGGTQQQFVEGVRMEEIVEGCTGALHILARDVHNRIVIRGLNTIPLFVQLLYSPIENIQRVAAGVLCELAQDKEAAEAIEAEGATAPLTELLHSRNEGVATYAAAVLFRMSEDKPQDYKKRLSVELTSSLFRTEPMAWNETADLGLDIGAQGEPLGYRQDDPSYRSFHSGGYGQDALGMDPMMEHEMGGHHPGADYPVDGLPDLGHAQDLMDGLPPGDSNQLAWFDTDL

Molecular target: E-cadherin (UniProt P12830)
Assay: co-immunoprecipitation with anti-E-cadherin antibody, immunoblot for β-catenin, A549 and H460 lysates

- binding: binds
Substance: β-catenin (from UniProt P35222 2-781)
